Our source for the TEAD-luciferase reporter activity values is the supplement of paper PMC10735217.

The subject of this experiment is HEK293A TEAD-LUC reporter. Put plainly: TEAD-luciferase reporter activity (YAP activation), robust Z score vs plate; higher = stronger YAP/TEAD activation. The settings on record: 24 h. (In general: A reporter such as luciferase makes a cellular process visible.)

This is one part of the list. This data set is noisy: repeats of one test often differ as much as different tests do.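 In a drug-repurposing library screen, luminescence reads luciferase driven by eight TEAD-binding elements, stably integrated into human kidney-derived cells. Compounds scoring over five robust Z scores above the plate mean are called hits.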

In the case of `O=C(O)Cc1sc(-c2ccccc2)nc1-c1ccc(Cl)cc1` [Fentiazac], the TEAD-luciferase reporter activity is, setting by setting: (compound concentration: 200 nM) inactive: -1.24; (compound concentration: 10 uM) inactive: -2.11.

As to `O=C(O)Cc1sc(-c2ccccc2)nc1-c1ccc(Cl)cc1`, the TEAD-luciferase reporter activity (compound concentration: 2 uM) is inactive: -1.12.

With `CC1CCC(C(C)C)C(OC(=O)C[N+](C)(C)CCCCCCCCCC[N+](C)(C)CC(=O)OC2CC(C)CCC2C(C)C)C1` (configuration not stated) [Decamethoxine], the TEAD-luciferase reporter activity was inactive: -1.48 (compound concentration: 200 nM), inactive: -1.84 (compound concentration: 2 uM) and inactive: -1.45 (compound concentration: 10 uM).

As to `c1ccc2[nH]c(-c3cscn3)nc2c1`, the TEAD-luciferase reporter activity runs as follows: (compound concentration: 200 nM) inactive: 2.38; (compound concentration: 10 uM) inactive: 2.2.

Turning to `c1ccc2[nH]c(-c3cscn3)nc2c1` [Thiabendazole], the TEAD-luciferase reporter activity (compound concentration: 2 uM) is inactive: -0.485.

On to `CCN(CC)CC1CCCCN1CC(=O)N1c2ccccc2C(=O)Nc2cccnc21` (configuration not stated), for which the TEAD-luciferase reporter activity reads like this: (compound concentration: 200 nM) inactive: -2.31; (compound concentration: 10 uM) inactive: -1.19.

On to `CCN(CC)CC1CCCCN1CC(=O)N1c2ccccc2C(=O)Nc2cccnc21` (configuration not stated) [Otenzepad], for which the TEAD-luciferase reporter activity (compound concentration: 2 uM) is inactive: -0.959.

Take `CC(C)CN(C[C@@H](OP(=O)([O-])[O-])[C@H](Cc1ccccc1)NC(=O)O[C@H]1CCOC1)S(=O)(=O)c1ccc(N)cc1` [Fosamprenavir calcium]: the TEAD-luciferase reporter activity (compound concentration: 200 nM) is inactive: -0.313, the TEAD-luciferase reporter activity (compound concentration: 2 uM) was inactive: -1.01 and the TEAD-luciferase reporter activity (compound concentration: 10 uM) was inactive: 0.211.

On to `CCCN(CCC)c1ccc(/N=N/c2ccccc2C(=O)O)cc1`, for which the TEAD-luciferase reporter activity was inactive: 3.88 (compound concentration: 200 nM), inactive: -0.309 (compound concentration: 2 uM) and inactive: 2.43 (compound concentration: 10 uM).

Regarding `CCCc1c(OCCCOc2ccc(C(C)=O)c(OC)c2CCC)ccc2c1OC(C(=O)O)CC2` (configuration not stated), the TEAD-luciferase reporter activity is inactive: -1.6 (compound concentration: 200 nM), inactive: -0.897 (compound concentration: 2 uM) and inactive: 0.431 (compound concentration: 10 uM).

Regarding `O=C1CCC(c2ccccc2)(C2CCN(C/C=C/c3ccccc3)CC2)C(=O)N1` (configuration not stated), the TEAD-luciferase reporter activity was inactive: 0.46 (compound concentration: 200 nM), inactive: -0.39 (compound concentration: 2 uM) and inactive: 0.987 (compound concentration: 10 uM).

As to `O=C1NC(=O)C2(N1)c1ccccc1-c1ccccc12`, the TEAD-luciferase reporter activity was inactive: -1.17 (compound concentration: 200 nM), inactive: -1.58 (compound concentration: 2 uM) and inactive: 2.95 (compound concentration: 10 uM).

With `CNc1nc(C)nc(N[C@H]2CCC[C@@H](C(=O)NCc3ccc(C#N)cc3C(F)(F)F)C2)n1`, the TEAD-luciferase reporter activity (compound concentration: 200 nM) was inactive: 1.35, the TEAD-luciferase reporter activity (compound concentration: 2 uM) is inactive: -1.13 and the TEAD-luciferase reporter activity (compound concentration: 10 uM) is inactive: 0.395.

Consider `CCN1CCN(CC(=O)N2CCC(c3cccc(Cl)c3)C2)C(=O)C1=O` (configuration not stated), for which the TEAD-luciferase reporter activity by setting is: (compound concentration: 200 nM) inactive: -0.404; (compound concentration: 2 uM) inactive: 3.06; (compound concentration: 10 uM) inactive: 0.284.

Consider `C/C(=N/OCC(O)CNC(C)(C)C)C1CC1` (configuration not stated) [falintolol], for which the TEAD-luciferase reporter activity (compound concentration: 200 nM) was inactive: -0.393, the TEAD-luciferase reporter activity (compound concentration: 2 uM) is inactive: -0.539 and the TEAD-luciferase reporter activity (compound concentration: 10 uM) was inactive: 0.416.

On to `N=C(NC(=N)N1CCN(C(=N)NC(=N)Nc2ccc(Cl)cc2)CC1)Nc1ccc(Cl)cc1`, for which the TEAD-luciferase reporter activity (compound concentration: 200 nM) is inactive: -1.24, the TEAD-luciferase reporter activity (compound concentration: 2 uM) was inactive: -0.883 and the TEAD-luciferase reporter activity (compound concentration: 10 uM) was inactive: 1.53.

For `CCC[C@@]1(CC(=O)OCC)OCCc2c1[nH]c1c(C)ccc(C#N)c21`, the TEAD-luciferase reporter activity (compound concentration: 200 nM) is inactive: -1.99, the TEAD-luciferase reporter activity (compound concentration: 2 uM) was inactive: 2.12 and the TEAD-luciferase reporter activity (compound concentration: 10 uM) was inactive: 0.844.
